Measured data: PubChem BioAssay AID1259405 (NCATS, 2018)

Screen: 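Silenced genes that increase secreted GFP made by CHO cells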 (primary screen)
System: Chinese hamster CHO-K1 ovary cells with stable secreted eGFP expression
Reagent: single siRNA against mouse genes, 0.8 pmol siRNA per well (2 µl of 400 nM stock)
Duration: 3 days
Measured: 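Per-well intracellular GFP measured by laser scanning cytometry, plus viability from ATP luminescence, each relative to plate median of non-targeting control wells, in %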
Direction: GFP, % of control: higher = more GFP per well, higher productivity; viability (ATP), % of control: higher = more viable cells (more ATP)
Active means: 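a knock-down is called active if GFP reaches 120% or more of non-targeting control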
The deposit covers about 50,000 reagents; below is a random part of them. About 4,000 of all reagents (8%) count as active. 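Mouse siRNA library applied to hamster cells; one well for each siRNA.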 Reagents against one gene are numbered here.

GFP, % of control | viability (ATP), % of control | outcome | target gene | reagent no.
40.9 | 47.6 | inactive | Tjp3 | 1
118 | 98.9 | inactive | Tjp3 | 2
76.7 | 137 | inactive | Tjp3 | 3
102 | 92.8 | inactive | Aldh1l1 | 1
83 | 73.1 | inactive | Aldh1l1 | 2
79.1 | 73.1 | inactive | Aldh1l1 | 3
38.1 | 33.9 | inactive | Mbp | 1
128 | 76.4 | active | Mbp | 2
64 | 41.9 | inactive | Mbp | 3
70.4 | 64.6 | inactive | Trappc1 | 1
125 | 114 | active | Trappc1 | 2
85.3 | 73.9 | inactive | Trappc1 | 3
113 | 99.8 | inactive | Dck | 1
45.5 | 29 | inactive | Lck | 1
25.6 | 21 | inactive | Rdh18-ps | 1
67 | 84.8 | inactive | Rdh18-ps | 2
75.6 | 74.3 | inactive | Rdh18-ps | 3
93.1 | 52.3 | inactive | Pde9a | 1
91.6 | 89.8 | inactive | Pde9a | 2
64.4 | 78 | inactive | Pde9a | 3
28.7 | 21.9 | inactive | Acp7 | 1
24.1 | 35.2 | inactive | Acp7 | 2
57.4 | 81.6 | inactive | Acp7 | 3
134 | 94.8 | active | Kat2b | 1
91.4 | 129 | inactive | Kat2b | 2
82.4 | 89.1 | inactive | Kat2b | 3
57.7 | 74.8 | inactive | Tnfsf8 | 1
133 | 124 | active | Tnfsf8 | 2
70.7 | 77.6 | inactive | Tnfsf8 | 3
95.8 | 81.5 | inactive | Rgs5 | 1
98.3 | 87.2 | inactive | Rgs5 | 2
85 | 86.2 | inactive | Rgs5 | 3
142 | 105 | active | Gcdh | 1
127 | 93.2 | active | Gcdh | 2
58 | 43.2 | inactive | Ano7 | 1
78.3 | 91.1 | inactive | Ano7 | 2
63.8 | 55.5 | inactive | Ano7 | 3
63.7 | 90.4 | inactive | Ypel2 | 1
84 | 61 | inactive | Ypel2 | 2
72.4 | 70.9 | inactive | Ypel2 | 3
116 | 85.2 | inactive | Csf2rb | 1
52.2 | 61.4 | inactive | Csf2rb | 2
89.2 | 83.4 | inactive | Csf2rb | 3
53.4 | 48.7 | inactive | Slc6a12 | 1
50.6 | 53.2 | inactive | Slc6a12 | 2
193 | 96.5 | active | Slc6a12 | 3
94.2 | 85 | inactive | Il27ra | 1
70.2 | 47.7 | inactive | Il27ra | 2
74.2 | 32.7 | inactive | Il27ra | 3
57.9 | 39.1 | inactive | Pgam2 | 1
67 | 89 | inactive | Pgam2 | 2
50.1 | 38.5 | inactive | Pgam2 | 3
79.2 | 104 | inactive | Itsn2 | 1
75.5 | 55.3 | inactive | Itsn2 | 2
69.8 | 59.2 | inactive | Itsn2 | 3
88 | 92.1 | inactive | Pdcd4 | 1
86.8 | 89.2 | inactive | Pdcd4 | 2
85.1 | 66.4 | inactive | Pdcd4 | 3

An excerpt from above, showing only “GFP, % of control”:
Tjp3 #1: 40.9
Tjp3 #2: 118
Tjp3 #3: 76.7
Aldh1l1 #1: 102
Aldh1l1 #2: 83
Aldh1l1 #3: 79.1
Mbp #1: 38.1
Mbp #2: 128
